From PubChem BioAssay AID463205 (Broad Institute, 2010)
The campaign covered roughly 2,400 compounds. About 20 (0.8%) were called active.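 Rule for the calls: active = AC50 no more than ten times the highest tested concentration, or full inhibition at every dose giving a flat fit (cut at about 30 µM in these data); inconclusive = flat fit with activity between 30% and 70%, or poor-quality invalid fit; inactive = AC50 more than ten times the top tested dose.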 The list shows a part of the results.

assay: inhibitors of ADP-Glo detection reagents, dose response, artefact control for GSK-3a inhibitor project, biochemical, luminescence, cell-free, homogeneous (AID 463205); conditions: 5 uM ADP;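 note: kinase-free counter-screen against the ADP-Glo detection reagents only; potency is for inhibitors that reduce the luminescence signal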

AC50, inactive:
CC1=C(C(=O)OCc2ccc3c(c2)OCO3)C(c2ccc(F)cc2)NC(=O)N1 (stereo not given) > 30 µM
O=C(Nc1ncc([N+](=O)[O-])s1)c1cccs1 > 30 µM
Cn1c(=O)c2c(-c3ccccc3)n(Cc3ccccn3)cc2n(C)c1=O > 30 µM
CN1C(=O)/C(=C/c2ccc3c(c2)OCO3)N=C1c1ccccc1 > 30 µM
Cc1cnc(NC(=O)C2COc3ccccc3O2)s1 (stereo not given) > 30 µM
COc1cccc(/C=N/Nc2ccc([N+](=O)[O-])cn2)c1O > 30 µM
COc1ccc(C=O)cc1OS(=O)(=O)c1ccccc1[N+](=O)[O-] > 30 µM
CC1(C)OC2OC(COC(=O)c3ccccc3)C3OC(C)(C)OC3C2O1 (stereo not given) > 30 µM
N#Cc1ccccc1Cn1cc(/C=N/Nc2ccc([N+](=O)[O-])cn2)c2ccccc21 > 30 µM
Cc1ccc2oc(=O)c3cnn(CC(=O)N4CCCCCC4)c3c2c1 > 30 µM
NC(=O)N/N=C/c1c(O)ccc2oc3c(c12)CCCC3 > 30 µM
CC(=O)Nc1ccc(NS(=O)(=O)c2cccc3nonc23)cc1 > 30 µM
O=[N+]([O-])c1ccc(COc2ccccc2/C=N/O)cc1 > 30 µM
Cc1ccc(/C=N/NC(=O)c2nnn(-c3nonc3N)c2CN(C)C)s1 > 30 µM
COc1ccc(OCc2nc(N)nc(Nc3ccc(C)cc3)n2)cc1 > 30 µM
O=C(Cn1c(NCCCO)nc2ccccc21)c1ccc([N+](=O)[O-])cc1 > 30 µM
O=C(N/N=C/c1cccc(O)c1)N/N=C/c1cccc(O)c1 > 30 µM
O=C1CCCC2=C1C(c1ccc(Br)cc1)c1c([nH]c(=S)[nH]c1=O)N2 (stereo not given) > 30 µM
Cc1cccc(C)c1OCC(O)CNC(C)c1ccccc1 (stereo not given) > 30 µM
COc1ccc(CC(=O)Oc2ccc(C)cc2C)cc1 > 30 µM
COC(=O)c1sc(NC(=O)COc2ccc(OC)cc2)nc1C > 30 µM
Cc1c(C(=O)OC2CCCCC2)[nH]c2c1C(=O)CC(C)(C)C2 > 30 µM
CCOC(=O)N1CCC(N2CCN(S(=O)(=O)c3ccc(NC(C)=O)cc3)CC2)CC1 > 30 µM
CCCC1=C(C(=O)OCC)C(c2ccc(O)cc2)n2ncnc2N1 (stereo not given) > 30 µM
OC(c1cc(C(F)(F)F)nc2c(Cl)cc(Cl)cc12)C1CCCCN1 (stereo not given) > 30 µM
CN1/C(=C/C=C(C#N)C#N)C(C)(C)c2ccccc21 > 30 µM
Cc1cccc(C)c1NC(=O)COC(=O)Cc1ccsc1 > 30 µM
COc1cccc(OC)c1C(=O)N1CCN(c2c(Cc3ccccc3)c(C)nc3ncnn23)CC1 > 30 µM
Cc1cccc(C(=O)Nc2cccc(C(=O)N/N=C/c3ccccn3)c2)c1 > 30 µM
CC(C)(C)NCC(O)COc1ccccc1C(C)(C)C (stereo not given) > 30 µM
O=C(Cn1ncc2c(=O)oc3ccccc3c21)N1CCc2ccccc2C1 > 30 µM
CCOCC(=O)Nc1nc2ccc(OC)cc2s1 > 30 µM
CCN1CCN(c2nc(Nc3ccc(C)c(C)c3)nc(N)c2[N+](=O)[O-])CC1 > 30 µM
CCOc1cc(/C=C2\SC(N3CCCC(C)C3)=NC2=O)ccc1O (stereo not given) > 30 µM
COc1ccc(COC(=O)C2=C(C)NC(=O)NC2c2cccc(Br)c2)cc1 (stereo not given) > 30 µM
O=C(COc1ccccc1Br)NC1CC1 > 30 µM
N#CCC(=O)Nc1sc2c(c1C(N)=O)CCCC2 > 30 µM
Cn1c(=O)c2[nH]c(N3CCOCC3)nc2n(-c2ccccc2)c1=O > 30 µM
CCN1CCN(c2c(Cl)cccc2NC(=O)c2ccc(Br)o2)CC1 > 30 µM
N#Cc1c(-c2ccccc2)nc(SCc2ccc(Cl)cc2)[nH]c1=O > 30 µM
COc1cccc(Nc2nc(N)c([N+](=O)[O-])c(NCc3ccccc3)n2)c1 > 30 µM
CN1CCN(c2ccccc2NC(=O)c2ccc(-c3ccccc3[N+](=O)[O-])o2)CC1 > 30 µM
O=C(c1ccc(Cl)cc1)c1cnc(Nc2ccccc2Cl)s1 > 30 µM
N#Cc1c(Nc2ccccc2)c(C=NCCN2CCOCC2)c[nH]c1=O > 30 µM
Cc1nnc(N/N=C/c2ccc(-c3ccc(Br)cc3)o2)n1N > 30 µM
CCC(C)Nc1nc(N)c([N+](=O)[O-])c(N2CCCCCC2)n1 (stereo not given) > 30 µM
N#CC1=C2SCN(Cc3ccco3)CN2C(=O)CC1c1cccc2ccccc12 (stereo not given) > 30 µM
CCOc1cc(/C=N/O)ccc1OCc1ccc([N+](=O)[O-])cc1 > 30 µM
S=C(Nc1ccc2c(c1)OCCO2)Nc1ccccc1Cl > 30 µM
Nc1nc2n(n1)C(c1ccc(Cl)cc1)CC(c1ccc(F)cc1)N2 (stereo not given) > 30 µM
COc1ccc(CC(=O)N2CCOCC2)cc1OC > 30 µM
COc1ccc(-c2c(-c3ccccc3)c(C(=O)C(=O)NCCCN(C)C)n3ccc4cc(OC)c(OC)cc4c23)cc1OC > 30 µM
CCOc1c(O)ccc(/C=C2\SC(=S)NC2=O)c1[N+](=O)[O-] > 30 µM
Cc1ccc(OCC(=O)N2CCN(c3nnc(-c4ccc(C)cc4)c4ccccc34)CC2)cc1 > 30 µM
COc1ccc(C(=O)C[n+]2cccc(Br)c2)cc1 > 30 µM
O=C(CNS(=O)(=O)c1ccccc1)N/N=C/c1ccc(O)cc1 > 30 µM
O=C(CCSc1nc(-c2ccc3c(c2)OCO3)cc(C(F)(F)F)n1)NCc1ccco1 > 30 µM
O=C(O)c1ccc2c(c1Nc1ccccc1)C(=O)c1ccccc1C2=O > 30 µM
O=C(O)c1ccc2c(c1)C(=O)N(CCCCCCCN1C(=O)c3ccc(C(=O)O)cc3C1=O)C2=O > 30 µM
COc1ccc(CCNC(=O)CSc2nc3[nH]ncc3c(=O)n2-c2cccc(C(F)(F)F)c2)cc1OC > 30 µM
Cc1ccc(C2C(C#N)=C(N)Oc3n[nH]c(-c4cccnc4)c32)o1 (stereo not given) > 30 µM
CC(=O)C(Sc1ccc2nnc(-c3ccc(C)cc3)n2n1)C(C)=O > 30 µM
CCSc1nc2sc3c(c2c(=O)n1CC)CC(C)(C)OC3 > 30 µM
COCc1nnc(NC(=O)CCCCCN2C(=O)c3ccccc3C2=O)s1 > 30 µM
C#CCOCCOCCOCCNc1nc(N2CCN(C(=O)CCCCCCCCCCNC(=O)[C@H](CCCCN)n3cc(C)nn3)CC2)nc(N2CCN(C(=O)CCCCCCCCCCNC(=O)[C@H](CCCN=C(N)N)n3cc(C[C@@H](C)CC)nn3)CC2)n1 > 30 µM
c1csc(CNc2ncnc3sccc23)c1 > 30 µM
COc1ccc(OC)c(/C=N/NC(=O)c2nnn(-c3nonc3N)c2-c2cccs2)c1 > 30 µM
CN(c1nc2nonc2nc1NC1CC1)C1CCOC1 (stereo not given) > 30 µM
CC1(C)Cc2c(sc3c2C2=NCCN2C=N3)CS1 > 30 µM
CCOC(=O)c1sc(NC(=O)C2CCC2)cc1C > 30 µM
O=[N+]([O-])c1ccc(O)c(/C=N/n2c(-c3ccccc3)n[nH]c2=S)c1 > 30 µM
COc1cccc(NC(=O)c2nnn(Cc3ccc(Br)cc3F)c2N)c1 > 30 µM
COc1ccc(/C=C2\Oc3cc(OCC(=O)N4CCC[C@H]4C(=O)O)ccc3C2=O)cc1OC > 30 µM
CCc1cc2c3c(c1)C(C)CC(C)(C)N3C(=O)/C2=C1\SC(=O)NC1=O (stereo not given) > 30 µM
O=C(Nc1cc(F)cc(F)c1)c1ccc(NCCCN2CCCCCC2)c([N+](=O)[O-])c1 > 30 µM
Fc1ccccc1CSc1nnc(-c2cccnc2)o1 > 30 µM
CCOc1cccc(-c2c(C(=O)N/N=C/c3ccco3)nnn2-c2nonc2N)c1 > 30 µM
O=c1cc(-c2ccsc2)oc2ccccc12 > 30 µM
COc1ccc(-c2cn3cccnc3n2)cc1NC(=O)C(C)C > 30 µM
COC(=O)CSc1ncnc2c1sc1nc3c(cc12)COC(C)(C)C3 > 30 µM
Cc1csc(NC(=O)C2CCCN2C(=O)OCC(C)C)n1 (stereo not given) > 30 µM
COc1cc2c(cc1OC)C(c1ccc(C)o1)CC(=O)N2 (stereo not given) > 30 µM
COc1ccc(C(=O)NCC(=O)N/N=C/C=C/c2ccccc2)cc1OC > 30 µM
O=C(NC1(C(F)(F)F)NC(=O)N(Cc2cccnc2)C1=O)c1ccccc1 (stereo not given) > 30 µM
COc1cc(/C=N/NC(=O)c2ccncc2)ccc1OCCN1CCCCC1 > 30 µM
CCCCc1ccc(NC(=O)N[C@H](C(=O)O)C(C)C)cc1 > 30 µM
Cc1cc(C)nc(NC(=O)/C=C/c2cccs2)c1 > 30 µM
Cc1ccc(C(=O)N2NC(c3ccccc3F)C3C(=O)N(c4cccc(C)c4)C(=O)C32)cc1 (stereo not given) > 30 µM
Cc1cc(C(C#N)c2ccccc2F)n2ncnc2n1 (stereo not given) > 30 µM

Compounds shown so far that have a COOH group:
AC50, inactive:
O=C(O)c1ccc2c(c1Nc1ccccc1)C(=O)c1ccccc1C2=O > 30 µM
O=C(O)c1ccc2c(c1)C(=O)N(CCCCCCCN1C(=O)c3ccc(C(=O)O)cc3C1=O)C2=O > 30 µM
COc1ccc(/C=C2\Oc3cc(OCC(=O)N4CCC[C@H]4C(=O)O)ccc3C2=O)cc1OC > 30 µM
CCCCc1ccc(NC(=O)N[C@H](C(=O)O)C(C)C)cc1 > 30 µM

A draw from above in order of formula weight, descending.
AC50, inactive:
CN1C(=O)/C(=C/c2ccc3c(c2)OCO3)N=C1c1ccccc1 > 30 µM
COc1ccc(CC(=O)Oc2ccc(C)cc2C)cc1 > 30 µM
Cc1cc(C(C#N)c2ccccc2F)n2ncnc2n1 (stereo not given) > 30 µM

Following part.

AC50, active:
CN(C)c1ccc(Nc2nc(N)c3ccccc3n2)cc1 22.8 µM
